According to publication PMC5633398:
No constants are given. Whether binding was seen depends on the method and setting. For some assays here: Binding seen in cells or lysates may run through a third protein. Some results given as binding are weak or reduced against the parent protein; the word gives no strength. For some assays here: Sequences can lack the tags named with a protein. Each block holds one binder with its values, some of them ahead of it.

Legend:
[1] = molecular target: T1, Bcy1-NV (Bcy1 tagged C-terminally with the N-terminal segment of yEmVenus) (C. albicans) (UniProt Q9HEW1); test: split reporter; BiFC with split yEmVenus in C. albicans SN152, MET3 promoter; confocal microscopy of living cells in the midexponential phase, SC -methionine -cysteine, 2% glucose (Bcy1-Tpk strains at 37°); fluorescence intensity per pixel quantified
T1 sequence: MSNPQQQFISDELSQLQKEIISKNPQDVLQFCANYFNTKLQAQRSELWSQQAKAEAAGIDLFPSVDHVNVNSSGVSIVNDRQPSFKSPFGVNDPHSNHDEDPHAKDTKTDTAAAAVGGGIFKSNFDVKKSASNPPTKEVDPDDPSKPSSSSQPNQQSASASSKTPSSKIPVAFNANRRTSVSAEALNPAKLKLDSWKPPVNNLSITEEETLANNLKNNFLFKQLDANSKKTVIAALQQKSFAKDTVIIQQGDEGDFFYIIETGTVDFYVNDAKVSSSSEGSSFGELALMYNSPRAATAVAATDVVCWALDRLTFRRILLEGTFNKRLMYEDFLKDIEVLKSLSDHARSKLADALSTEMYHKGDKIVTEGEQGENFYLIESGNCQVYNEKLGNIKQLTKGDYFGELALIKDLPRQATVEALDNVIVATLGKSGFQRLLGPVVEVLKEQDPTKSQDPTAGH

[2] = molecular target: T2, Bcy1, Candida two-hybrid construct (C. albicans) (UniProt Q9HEW1); test: two-hybrid; Candida two-hybrid in C. albicans SC2H3, vectors pC2HB (bait) and pC2HP (prey), MET3 promoter; scored by growth on medium lacking methionine, cysteine and histidine; 3 d at 30°
T2 sequence: T1 sequence

[3] = molecular target: Snf4-CV (Snf4 tagged C-terminally with the C-terminal segment of yEmVenus) (C. albicans); test: split reporter; BiFC with split yEmVenus in C. albicans SN152, MET3 promoter; microplate reader, fluorescence normalised to OD600 and to the autofluorescence of a strain with backbone vectors; low-fluorescence SC -methionine -cysteine, 2% glucose; exponential phase
[4] = molecular target: Snf4-CV (Snf4 tagged C-terminally with the C-terminal segment of yEmVenus) (C. albicans); test: split reporter; BiFC with split yEmVenus in C. albicans SN152, MET3 promoter; confocal microscopy of living cells in the midexponential phase, SC -methionine -cysteine, 2% glucose (Bcy1-Tpk strains at 37°); fluorescence intensity per pixel quantified
[5] = molecular target: Snf4, Candida two-hybrid construct (full-length SNF4) (C. albicans); test: two-hybrid; Candida two-hybrid in C. albicans SC2H3, vectors pC2HB (bait) and pC2HP (prey), MET3 promoter; scored by growth on medium lacking methionine, cysteine and histidine; 3 d at 30°

- binding [1]: binds
B1: Tpk1-CV (Tpk1 tagged C-terminally with the C-terminal segment of yEmVenus) (enzyme, UniProt Q5AP71 1-405)
chain: MTSMEPADTSIRSLNDINLQELANKQHQRNIYAQGSPTLEDSITSNGNDINNPNNNINKTNNNSNSSLSLTKKTSRHINKDTTTKGKYTLNDFQILRTLGTGSFGRVHLTRSIHNGRFYAMKVLKKQRVVQMKQIEHTNDERRMLKLAQHPFIIRMWGTFQDCHNLFMIMDYIEGGELFSLLRKSQRFPTPVAKFYAAEVFLAIEYLHSLDIIYRDLKPENILLDKNGHIKLTDFGFAKEVQDVTYTLCGTPDYIAPEVVATKPYNKSVDWWSFGILIFEMLTGYTPFYDPTPMKTYENILNGSITYPDYLPPDILDLLQKLIVKDLTQRLGNLQGGSDDVKNHPWFKEVIWERLLSRDIETPYEPPITSGVGDTSQFDRYPEDKDLDYGISGVEDPYRDQFQDF

- binding [2]: binds
B2: Tpk1, Candida two-hybrid construct (enzyme, UniProt Q5AP71 1-405)
chain: B1 chain

The next lines start with the binder.

B3: Kis1-NV (full-length Kis1 tagged C-terminally with the N-terminal segment of yEmVenus) (protein, UniProt Q59X47 1-412)
chain: MLSPKSTNQEAPATAPLDDINTTKDVSMVDVSKAEGENQQPPRRKSTIILTDEIDLDRMNIDNKESDKSNEQGDKMHIDRSLSNLNQQQHSQSSQSEPSQPEQQQQQQQQQQQQQQQPVAPDANIAVPVDIKWVQGGQKVYVTGSFTGWRKMIGLVKQPDDNFMITLGLPVGTHRFRFVVDNELRFSDFLPTATDQMGNFVNYIEITPENVQQHLLQEKEESNNESQQQELEKQQAKTGDKTSSQQASRRSSVSRSRSNSMWGLTNDDDDMGDGYSRYHDDESNALDEKTYQYIKDIPPIFTDPKVMEQYYVAIDKQSRNNNGQQQAWLHPPQLPPHLESVILNNFNNTENNSGALPIPNHVVLNHLATTSIKHNTLAVASIVRYKRKYLTQVLYAPLQQASSSSTTQEQQS
- binding [3]: binds
- binding [4]: binds

B4: Kis1, Candida two-hybrid construct (full-length KIS1) (protein, UniProt Q59X47 1-412)
chain: B3 chain
- binding [5]: binds
